Results as given in patent US20210198374A1.
No constants are given. Whether binding was seen depends on the method and setting. Some binding calls cover weakened binding; strength is not graded here.

Sequences of proteins named here, by UniProt entry; tags and fusion partners are left off. A change or cut given only in a name is not applied to a line headed by its entry. A line that says so, or that is headed by a name, gives the form on record, which may keep a tag or linker.
recombinant cynomolgus PD-L1-FLAG-HIS (G7PSE7, form named): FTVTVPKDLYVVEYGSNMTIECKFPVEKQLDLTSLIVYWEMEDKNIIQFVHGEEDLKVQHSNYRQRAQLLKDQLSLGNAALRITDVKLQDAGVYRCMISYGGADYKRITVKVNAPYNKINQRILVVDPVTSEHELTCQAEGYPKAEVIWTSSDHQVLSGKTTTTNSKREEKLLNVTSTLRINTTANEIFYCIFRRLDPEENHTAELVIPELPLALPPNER

B1: 1B3 (antibody, V domains shown)
VH: EVQLVESGGGLVQPGGSLRLSCAASGGTISTSWMSWVRQAPGKGLEWVANIKQDGSEKYYVDSVKGRFTISRDNAKNSLYLQMNSLRVEDTAMYYCARDRPVAGASALWGQGTLVTVSS
VL: DIQMTQSPSTLSASVGDRVTITCRASQSISGWLAWYQQKPGKAPKLLIYKASSLESGVPSRFSGSGSGTEFTLTISSLQPDDFATYYCQQYYGSSRTFGQGTNVEIK
B2: 3B6 (antibody, V domains shown)
VH: EVQLVESGGGLVQPGGSLRLSCAASGGTTSTYWMSWVRQAPGKGLEWVANIKQDGSEKYYVDSVKGRFTISRDNAKNSLNLQMNSLRVEDTAIYYCARDRPVAGASALWGQGTLVTVSS
VL: DIQMTQSPSTLSASVGDRVTITCRASQSISGWLAWYQQKPGKAPKLLIYKASSLESGVPSRFSGSGSGTEFTLTISSLQPDDFATYYCQQYYGSSRTFGQGTNVEIK
B3: 4A3 (antibody, V domains shown)
VH: EVQLVESGGGLVQPGGSLRLSCAASGGIISSSWMSWVRQAPGKGLEWVANIKQDGSEKYYVDSVKGRFTISRDNAKDLLYLQMNSLRVEDTALYYCARDRPVAGASALWGQGTLVTVSS
VL: DIQMTQSPSTLSASVGDRVTITCRASQSISGWLAWYQQKPGKAPKLLIYKASSLESGVPSRFSGSGSGTEFTLTISSLQPDDFATYYCQQYYGSSRTFGQGTNVEIK
B4: 7H7 (antibody, V domains shown)
VH: EVQLVESGGGLVQPGGSLRLSCAASGGTISTSWMSWVRQAPGKGLEWVANIKQDGSEKYYVDSVKGRFTISRDNAKNSLYLQMNSLRVEDTAIYYCARDRPVAGASALWGQGTLVTVSS
VL: DIQMTQSPSTLSASVGDRVTITCRASQSISGWLAWYQQKQGKAPKLLIYKASSLESGVPSRFSGSGSGTEFTLTISSLQPDDFATYYCQQYYGSSRTFGQGTNVEIK
B5: 8B1 (antibody, V domains shown)
VH: EVRLVESGGGLVQPGGSLRLSCAASGDIISTHWMSWVRQAPGKGLEWVANIKQDGSEKYYVDSVKGRFTISRDNAKNSLYLQMNTLRVEDTAIYYCTRDRPVAGASALWGQGTLVTVSS
VL: DIQMTQSPSTLSASVGDRVTITCRASQSISGWLAWYQQKPGKAPKLLIYKASSLESGVPLRFSGSGSGTEFTLTISSLQPDDFATYYCQQYYGSSRTFGQGTNVEIK
B6: 9H9 (antibody, V domains shown)
VH: EVQLVESGGGLVQPGGSLRLSCAASGGIISTYWMSWVRQAPGKGLEWVANIKQDGSEKYYVDSVKGRFTISRDNAKNSLYLQMNSLRVEDTAMYYCARDRPVAGASALWGQGTLVTVSS
VL: DIQMTQSPSTLSASVGDRVTITCRASQSISGWLAWYQQKPGKAPKLLIYKASSLESGVPSRFSGSGSGTEFTLTISSLQPDDFATYYCQQYYGSSRTFGQGTNVEIK

Columns and labels:
[1] = target: recombinant cynomolgus PD-L1-FLAG-HIS (cynomolgus) (UniProt G7PSE7); assay: ELISA; plate coated with recombinant cynomolgus PD-L1-FLAG-HIS (legend of FIG. 9)
[2] = target: recombinant cynomolgus PD-L1-FLAG-HIS (cynomolgus) (UniProt G7PSE7); assay: ELISA; plate coated with recombinant cynomolgus PD-L1-FLAG-HIS; hybridoma supernatants, anti-rat IgG Fc-HRP detection

Binder | binding [1] | binding [2]
B1 | binds | binds
B2 | binds | binds
B3 | binds | binds
B4 | binds | binds
B5 | binds | binds
B6 | binds | binds
